Assay results taken from article PMC4872745.
These are yes or no findings as the source states them, for the method shown. In cells and extracts the contact can be indirect. Binding can be weak; no strength is given.

Target: JNK (human (endogenous in SH-SY5Y))
Test: co-IP; SH-SY5Y treated with 0.5 uM TSA for 4 hours; WB with antibody against MKP-1, JNK and ERK

B1: MAPK phosphatase-1 (MKP-1) (enzyme, UniProt P28562 1-367)
chain: MVMEVGTLDAGGLRALLGERAAQCLLLDCRSFFAFNAGHIAGSVNVRFSTIVRRRAKGAMGLEHIVPNAELRGRLLAGAYHAVVLLDERSAALDGAKRDGTLALAAGALCREARAAQVFFLKGGYEAFSASCPELCSKQSTPMGLSLPLSTSVPDSAESGCSSCSTPLYDQGGPVEILPFLYLGSAYHASRKDMLDALGITALINVSANCPNHFEGHYQYKSIPVEDNHKADISSWFNEAIDFIDSIKNAGGRVFVHCQAGISRSATICLAYLMRTNRVKLDEAFEFVKQRRSIISPNFSFMGQLLQFESQVLAPHCSAEAGSPAMAVLDRGTSTTTVFNFPVSIPVHSTNSALSYLQSPITTSPSC
- binding: binds
